Data taken from patent US5723576A (Development Biotechnological Processes S.N.C., priority 1993, dated 1998).
Strings that start with PEPTIDE1 are HELM notation: dots part the residues, brackets hold end groups and non-standard residues.

Assay: Boc solid-phase peptide synthesis; Boc-Glu(γBzl)-OCH2-PAM resin; symmetric anhydrides (DCC); PyBop for Boc-Aib-OH
Settings: whole synthesis, 210 nm, scale 0.5 mmol

PEPTIDE1{I.R.Y.T.D.[dA].[bAla].[bAla].P.E.N.H.N.N.G.D.F.E.E.I.P.[Aib].[Aib].Y.L.E}$$$$V2.0
final HPLC purity: >99%
